These are yes or no findings as the source states them, for the method shown. Some entries that bind do so weakly or less than the wild type.

Protein sequences, listed by entry. Tags and fused reporters are not part of them.
UniProt P0A6F5: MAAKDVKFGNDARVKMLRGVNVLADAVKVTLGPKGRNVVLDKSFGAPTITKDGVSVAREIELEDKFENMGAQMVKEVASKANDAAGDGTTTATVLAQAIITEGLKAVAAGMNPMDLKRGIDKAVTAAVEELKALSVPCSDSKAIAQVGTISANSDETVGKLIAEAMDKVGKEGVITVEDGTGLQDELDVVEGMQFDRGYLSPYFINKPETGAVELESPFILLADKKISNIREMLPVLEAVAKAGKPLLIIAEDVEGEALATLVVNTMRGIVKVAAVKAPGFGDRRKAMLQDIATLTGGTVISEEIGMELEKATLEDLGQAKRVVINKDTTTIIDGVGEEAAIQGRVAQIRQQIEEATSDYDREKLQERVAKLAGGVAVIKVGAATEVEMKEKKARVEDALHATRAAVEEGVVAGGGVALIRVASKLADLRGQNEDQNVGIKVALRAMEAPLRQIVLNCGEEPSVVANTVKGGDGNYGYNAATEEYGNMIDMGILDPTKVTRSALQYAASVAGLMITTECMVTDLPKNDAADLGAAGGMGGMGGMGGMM
UniProt P0A6Y8: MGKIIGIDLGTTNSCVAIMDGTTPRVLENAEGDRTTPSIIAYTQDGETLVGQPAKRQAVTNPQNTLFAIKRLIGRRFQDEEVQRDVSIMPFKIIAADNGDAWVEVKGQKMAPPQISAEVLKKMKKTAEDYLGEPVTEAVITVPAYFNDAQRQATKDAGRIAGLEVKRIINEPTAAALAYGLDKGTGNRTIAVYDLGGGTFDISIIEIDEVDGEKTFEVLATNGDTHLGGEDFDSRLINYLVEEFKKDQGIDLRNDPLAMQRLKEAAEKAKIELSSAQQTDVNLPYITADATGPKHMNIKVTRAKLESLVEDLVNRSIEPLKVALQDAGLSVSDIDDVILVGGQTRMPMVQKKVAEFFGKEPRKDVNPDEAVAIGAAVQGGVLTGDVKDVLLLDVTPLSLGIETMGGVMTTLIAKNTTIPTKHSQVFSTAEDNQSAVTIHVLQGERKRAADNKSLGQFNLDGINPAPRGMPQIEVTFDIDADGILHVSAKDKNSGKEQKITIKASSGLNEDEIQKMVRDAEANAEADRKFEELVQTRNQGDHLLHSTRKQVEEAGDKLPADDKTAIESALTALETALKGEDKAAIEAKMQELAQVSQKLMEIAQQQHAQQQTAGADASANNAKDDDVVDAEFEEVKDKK
UniProt P0A850: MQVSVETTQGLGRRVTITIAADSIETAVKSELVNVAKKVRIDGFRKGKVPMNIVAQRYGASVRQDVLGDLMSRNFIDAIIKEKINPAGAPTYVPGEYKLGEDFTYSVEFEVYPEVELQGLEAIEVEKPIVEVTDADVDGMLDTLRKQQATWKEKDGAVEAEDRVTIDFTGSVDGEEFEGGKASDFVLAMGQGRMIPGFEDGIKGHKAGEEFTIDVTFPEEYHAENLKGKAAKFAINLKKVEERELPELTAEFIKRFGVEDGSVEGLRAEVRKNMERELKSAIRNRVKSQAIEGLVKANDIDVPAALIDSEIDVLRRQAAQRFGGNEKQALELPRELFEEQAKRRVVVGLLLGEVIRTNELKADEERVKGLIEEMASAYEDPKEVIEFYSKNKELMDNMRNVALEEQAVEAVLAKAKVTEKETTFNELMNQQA
UniProt P0AES4: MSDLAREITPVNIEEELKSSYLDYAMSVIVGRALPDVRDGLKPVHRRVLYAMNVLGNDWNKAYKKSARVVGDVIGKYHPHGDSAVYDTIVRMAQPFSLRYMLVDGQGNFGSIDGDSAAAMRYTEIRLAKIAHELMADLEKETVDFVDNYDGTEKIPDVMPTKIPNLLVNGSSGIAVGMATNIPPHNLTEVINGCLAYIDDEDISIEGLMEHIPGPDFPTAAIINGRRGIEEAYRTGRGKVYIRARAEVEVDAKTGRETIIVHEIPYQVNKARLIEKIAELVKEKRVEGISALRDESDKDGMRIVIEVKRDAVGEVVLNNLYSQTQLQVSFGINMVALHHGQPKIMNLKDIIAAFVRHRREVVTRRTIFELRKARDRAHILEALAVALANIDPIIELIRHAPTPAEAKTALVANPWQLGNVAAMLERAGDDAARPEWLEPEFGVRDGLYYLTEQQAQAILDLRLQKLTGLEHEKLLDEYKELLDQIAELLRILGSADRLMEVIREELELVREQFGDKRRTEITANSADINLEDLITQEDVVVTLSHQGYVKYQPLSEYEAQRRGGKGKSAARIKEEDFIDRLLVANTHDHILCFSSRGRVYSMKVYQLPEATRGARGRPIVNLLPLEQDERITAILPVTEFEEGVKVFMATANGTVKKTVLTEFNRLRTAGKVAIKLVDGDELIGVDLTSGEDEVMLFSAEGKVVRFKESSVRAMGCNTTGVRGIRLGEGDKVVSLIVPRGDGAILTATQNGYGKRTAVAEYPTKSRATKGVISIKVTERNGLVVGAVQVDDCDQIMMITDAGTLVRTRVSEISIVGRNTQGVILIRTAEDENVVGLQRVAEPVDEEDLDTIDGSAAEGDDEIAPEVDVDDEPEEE
UniProt P60785: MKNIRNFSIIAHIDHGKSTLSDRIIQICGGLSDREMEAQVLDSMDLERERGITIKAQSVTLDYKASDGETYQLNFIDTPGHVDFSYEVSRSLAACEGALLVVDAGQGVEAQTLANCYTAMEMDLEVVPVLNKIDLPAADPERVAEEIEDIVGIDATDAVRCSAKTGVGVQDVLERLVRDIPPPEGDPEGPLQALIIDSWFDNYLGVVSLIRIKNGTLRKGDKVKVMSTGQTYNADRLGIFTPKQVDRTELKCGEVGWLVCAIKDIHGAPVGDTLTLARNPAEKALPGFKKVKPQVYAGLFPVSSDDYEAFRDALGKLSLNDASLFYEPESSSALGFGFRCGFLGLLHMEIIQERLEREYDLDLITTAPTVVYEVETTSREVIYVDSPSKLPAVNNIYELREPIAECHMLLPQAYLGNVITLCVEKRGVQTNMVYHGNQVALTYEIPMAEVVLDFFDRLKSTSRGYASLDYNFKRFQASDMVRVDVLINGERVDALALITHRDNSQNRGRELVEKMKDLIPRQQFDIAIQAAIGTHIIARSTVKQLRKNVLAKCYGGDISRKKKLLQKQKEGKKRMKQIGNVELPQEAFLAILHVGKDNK
UniProt P07813: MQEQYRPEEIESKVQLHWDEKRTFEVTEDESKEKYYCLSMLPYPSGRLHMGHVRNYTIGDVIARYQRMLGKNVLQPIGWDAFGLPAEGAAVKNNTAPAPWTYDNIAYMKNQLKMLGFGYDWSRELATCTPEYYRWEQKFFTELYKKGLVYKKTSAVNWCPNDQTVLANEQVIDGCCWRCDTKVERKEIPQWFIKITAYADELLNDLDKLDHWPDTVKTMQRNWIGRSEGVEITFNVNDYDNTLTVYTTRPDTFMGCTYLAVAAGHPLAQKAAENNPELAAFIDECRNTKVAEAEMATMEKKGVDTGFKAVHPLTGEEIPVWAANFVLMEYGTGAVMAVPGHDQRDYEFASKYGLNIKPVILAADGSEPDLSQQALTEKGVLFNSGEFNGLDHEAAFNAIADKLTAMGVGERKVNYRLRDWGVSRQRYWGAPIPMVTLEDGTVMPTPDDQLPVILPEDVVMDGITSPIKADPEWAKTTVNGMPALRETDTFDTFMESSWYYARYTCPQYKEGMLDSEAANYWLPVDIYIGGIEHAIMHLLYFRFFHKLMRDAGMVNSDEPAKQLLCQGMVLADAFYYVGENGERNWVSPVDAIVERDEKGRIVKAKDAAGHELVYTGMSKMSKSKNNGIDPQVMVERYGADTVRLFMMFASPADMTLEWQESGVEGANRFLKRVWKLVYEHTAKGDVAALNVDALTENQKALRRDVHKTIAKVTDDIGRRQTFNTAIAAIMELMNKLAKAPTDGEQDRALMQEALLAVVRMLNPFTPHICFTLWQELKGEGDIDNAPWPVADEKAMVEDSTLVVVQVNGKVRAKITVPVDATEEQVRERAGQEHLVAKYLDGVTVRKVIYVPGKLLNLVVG
UniProt P13009: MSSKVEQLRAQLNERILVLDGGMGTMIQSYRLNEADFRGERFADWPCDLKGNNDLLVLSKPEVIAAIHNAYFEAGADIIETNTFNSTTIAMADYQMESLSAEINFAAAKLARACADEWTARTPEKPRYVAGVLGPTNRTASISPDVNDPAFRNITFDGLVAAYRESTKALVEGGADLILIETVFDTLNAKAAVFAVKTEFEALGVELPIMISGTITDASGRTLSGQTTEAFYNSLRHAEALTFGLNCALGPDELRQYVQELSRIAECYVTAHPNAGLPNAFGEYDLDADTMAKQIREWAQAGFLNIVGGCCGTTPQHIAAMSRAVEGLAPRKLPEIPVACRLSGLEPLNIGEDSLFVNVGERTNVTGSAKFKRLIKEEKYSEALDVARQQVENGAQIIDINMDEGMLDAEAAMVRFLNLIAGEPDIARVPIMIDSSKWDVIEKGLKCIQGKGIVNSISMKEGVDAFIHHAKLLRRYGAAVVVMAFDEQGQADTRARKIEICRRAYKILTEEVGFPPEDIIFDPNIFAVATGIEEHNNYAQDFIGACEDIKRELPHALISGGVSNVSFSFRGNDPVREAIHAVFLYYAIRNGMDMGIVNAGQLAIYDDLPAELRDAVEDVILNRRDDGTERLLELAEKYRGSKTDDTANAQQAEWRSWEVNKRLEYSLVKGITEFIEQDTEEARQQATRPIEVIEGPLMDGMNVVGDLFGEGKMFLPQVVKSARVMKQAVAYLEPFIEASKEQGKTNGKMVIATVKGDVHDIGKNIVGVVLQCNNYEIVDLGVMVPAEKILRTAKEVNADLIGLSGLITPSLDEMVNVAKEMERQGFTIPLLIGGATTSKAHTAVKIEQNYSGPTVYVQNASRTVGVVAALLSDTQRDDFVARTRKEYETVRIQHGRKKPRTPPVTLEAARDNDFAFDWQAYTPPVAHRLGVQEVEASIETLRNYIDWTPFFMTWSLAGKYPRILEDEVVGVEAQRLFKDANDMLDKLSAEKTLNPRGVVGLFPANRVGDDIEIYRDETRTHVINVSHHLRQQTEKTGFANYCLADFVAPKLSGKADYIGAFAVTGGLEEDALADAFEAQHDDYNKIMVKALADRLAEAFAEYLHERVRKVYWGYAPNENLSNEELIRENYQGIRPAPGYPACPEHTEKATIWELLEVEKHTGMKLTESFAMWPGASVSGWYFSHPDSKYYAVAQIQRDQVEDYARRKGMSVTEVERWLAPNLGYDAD
UniProt P24255: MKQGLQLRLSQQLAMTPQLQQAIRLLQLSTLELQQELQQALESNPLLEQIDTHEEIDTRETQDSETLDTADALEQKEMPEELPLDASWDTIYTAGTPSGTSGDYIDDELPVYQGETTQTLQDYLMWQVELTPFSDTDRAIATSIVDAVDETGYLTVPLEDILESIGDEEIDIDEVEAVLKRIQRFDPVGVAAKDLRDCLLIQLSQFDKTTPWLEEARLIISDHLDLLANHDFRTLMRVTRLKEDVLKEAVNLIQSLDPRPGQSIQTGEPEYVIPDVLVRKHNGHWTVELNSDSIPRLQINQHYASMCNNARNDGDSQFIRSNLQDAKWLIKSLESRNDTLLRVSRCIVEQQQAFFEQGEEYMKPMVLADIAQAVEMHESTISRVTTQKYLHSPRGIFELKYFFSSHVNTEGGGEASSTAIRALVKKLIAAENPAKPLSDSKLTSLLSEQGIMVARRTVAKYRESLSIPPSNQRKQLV
UniProt P21169: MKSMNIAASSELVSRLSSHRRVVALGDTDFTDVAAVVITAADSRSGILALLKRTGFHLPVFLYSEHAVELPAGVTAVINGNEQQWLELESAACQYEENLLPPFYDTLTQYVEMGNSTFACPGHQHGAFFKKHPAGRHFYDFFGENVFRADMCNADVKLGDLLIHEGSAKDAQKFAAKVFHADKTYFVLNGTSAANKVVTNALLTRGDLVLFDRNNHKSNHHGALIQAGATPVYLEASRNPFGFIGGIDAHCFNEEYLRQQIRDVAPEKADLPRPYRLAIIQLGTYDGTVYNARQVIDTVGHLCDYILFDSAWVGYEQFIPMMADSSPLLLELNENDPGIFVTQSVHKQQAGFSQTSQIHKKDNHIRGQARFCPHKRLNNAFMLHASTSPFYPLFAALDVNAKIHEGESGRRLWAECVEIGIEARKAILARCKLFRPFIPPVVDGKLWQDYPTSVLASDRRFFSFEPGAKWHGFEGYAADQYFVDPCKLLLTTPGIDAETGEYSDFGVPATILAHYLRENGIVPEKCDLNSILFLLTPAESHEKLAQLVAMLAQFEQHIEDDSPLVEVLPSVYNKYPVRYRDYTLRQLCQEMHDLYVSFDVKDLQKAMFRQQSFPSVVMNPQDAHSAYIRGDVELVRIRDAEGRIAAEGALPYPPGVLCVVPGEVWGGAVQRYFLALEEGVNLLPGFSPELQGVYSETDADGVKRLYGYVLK

The target in assay [1] is GroEL (E. coli (endogenous in MC4100)) (UniProt P0A6F5). Kind of assay: selective ribosome profiling (immunoprecipitation of chaperone-bound ribosome-nascent chain complexes, sequencing of the mRNA footprints); GroEL immunoprecipitated with anti-GroEL antibody from ATP-depleted lysate cross-linked with 60 mM EDC; WT, Δtig and ΔdnaK strain backgrounds; selected translatome normalised by the total translatome.

The target of assay [2] is DnaK (E. coli (endogenous in E. coli cells)) (UniProt P0A6Y8). Kind of assay: selective ribosome profiling (SeRP); immunoprecipitation of DnaK (anti-DnaK antibody on Dynabeads) with ribosome-nascent chain complexes; ATP depleted with hexokinase; MNase digest, sucrose cushion; ribosome footprints sequenced.
Assay [3] has as its target Trigger Factor (tig-TEV-Avi) (E. coli) (UniProt P0A850). Kind of assay: selective ribosome profiling (SeRP); affinity purification of TF-TEV-Avi with ribosome-nascent chain complexes from E. coli lysate, no chemical cross-linking; ribosome footprints sequenced, enrichment over the total translatome.
The target of assay [4] is DnaK (E. coli (endogenous in MC4100)) (UniProt P0A6Y8). Kind of assay: selective ribosome profiling (immunoprecipitation of chaperone-bound ribosome-nascent chain complexes, sequencing of the mRNA footprints); DnaK immunoprecipitated with anti-DnaK antibody on Dynabeads from ATP-depleted (hexokinase) lysate after MNase digest and sucrose cushion; selected translatome normalised by the total translatome.

Turning to “nascent AceE (from UniProt P0AFG8 1-887)”, the binding result in assay [1], in assay [2] and in assay [3] was “binds” in each case.
In the case of “nascent GyrA (from UniProt P0AES4 1-875)”, the binding entry in assay [2] and in assay [3] was “binds” in each case.
As to “nascent LepA (from UniProt P60785 1-599)”, the binding entry in assay [2] is on record as “binds”.
The same measure, in the same setting: for “nascent LeuS (from UniProt P07813 1-860)” the value was “binds”.
“nascent MetH (from UniProt P13009 1-1227)”: the binding result in assay [2] is “binds”.
For the substance “nascent RfbA (from UniProt P37744 1-293)”, the binding entry in assay [3] is given as “binds”.
For “nascent RpoN (from UniProt P24255 1-477)”, the binding entry in assay [4] is listed as “binds”.
On the same count and under the same terms, for “nascent SpeC (from UniProt P21169 1-711)” the value was “binds”.

These data come from paper PMC12065913.
